Our source for the binding values is US20180044401A1.

These are yes or no findings as the source states them, for the method shown. Some entries that bind do so weakly or less than the wild type.

This assay concerns the target IgG-Fc derived from anti-RSV monoclonal antibody (Palivizumab) (human) [IgG part: P01857]. The assay is described as follows: SPR Biacore 3000. A general note: Surface plasmon resonance follows binding to a sensor surface in real time, without labels.

B1: immunoglobulin G-binding peptide having the amino acid sequence of SEQ ID NO: 2 (designed binder)
chain: GPLGSTTYKLILNGKTLTGYTTAIAADAATAEIVLKQFANDNGIDGEWTYDDATKTFTVTE
Take B1: the binding entry is “binds”.
